# From the supplement of paper PMC8728848
# This is one part of the list.
# B1: OS9-MRH (Homo sapiens), Q13438 (protein)
# chain: IPELLSPMRDAPCLLKTKDWWTYEFCYGRHIQQYHMEDSEIKGEVLYLGYYQSAFDWDDETAKASKQHRLKRYHSQTYGNGSKCDLNGRPREAEVRFLCDEGAGISGDYIDRVDEPLSCSYVLTIRTPRLCPHPLLRPPPSAAPQAI
# Key:
# Experiment in all cases: glycan array binding signal (z-score within array); higher = stronger binding
# Settings in all cases: glycan notation: IUPAC condensed, linker removed
# [1] = biological target: GlcNAc(a1-6)Gal(b1-4)GlcNAc
# Method in brief: (§1)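 The binding signal is a Z-score computed within each array. Data were drawn from 3228 arrays in the Consortium for Functional Glycomics database, restricted to those with a known protein sequence. Scores were averaged over arrays of the same protein sequence at different concentrations or buffers, and over linkers, and negative values can be taken as non-binding.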
# [2] = biological target: GlcNAc(b1-2)Gal(b1-3)GalNAc
# Method in brief: as §1
# [3] = biological target: GlcNAc(b1-2)Man(a1-3)[GlcNAc(b1-2)Man(a1-6)]Man(b1-4)GlcNAc(b1-4)GlcNAc
# Method in brief: as §1
# [4] = biological target: GlcNAc(b1-2)Man(a1-3)[GlcNAc(b1-2)Man(a1-6)]Man(b1-4)GlcNAc(b1-4)[Fuc(a1-6)]GlcNAc
# Method in brief: as §1
# [5] = biological target: GlcNAc(b1-2)Man(a1-3)[GlcNAc(b1-4)][GlcNAc(b1-2)Man(a1-6)]Man(b1-4)GlcNAc(b1-4)GlcNAc
# Method in brief: as §1
# [6] = biological target: GlcNAc(b1-2)Man(a1-3)[GlcNAc(b1-4)][GlcNAc(b1-2)Man(a1-6)]Man(b1-4)GlcNAc(b1-4)[Fuc(a1-6)]GlcNAc
# Method in brief: as §1
# [7] = biological target: GlcNAc(b1-2)[GlcNAc(b1-4)]Man(a1-3)[GlcNAc(b1-2)Man(a1-6)]Man(b1-4)GlcNAc(b1-4)GlcNAc
# Method in brief: as §1
# [8] = biological target: GlcNAc(b1-2)[GlcNAc(b1-4)]Man(a1-3)[GlcNAc(b1-4)][GlcNAc(b1-2)Man(a1-6)]Man(b1-4)GlcNAc(b1-4)GlcNAc
# Method in brief: as §1
# [9] = biological target: GlcNAc(b1-2)[GlcNAc(b1-4)]Man(a1-3)[GlcNAc(b1-4)][GlcNAc(b1-2)[GlcNAc(b1-6)]Man(a1-6)]Man(b1-4)GlcNAc(b1-4)GlcNAc
# Method in brief: as §1
# [10] = biological target: GlcNAc(b1-2)[GlcNAc(b1-4)]Man(a1-3)[GlcNAc(b1-4)][GlcNAc(b1-2)[GlcNAc(b1-6)]Man(a1-6)]Man(b1-4)GlcNAc(b1-4)[Fuc(a1-6)]GlcNAc
# Method in brief: as §1
# [11] = biological target: GlcNAc(b1-2)[GlcNAc(b1-6)]Man(a1-6)[GlcNAc(b1-2)Man(a1-3)]Man(b1-4)GlcNAc(b1-4)GlcNAc
# Method in brief: as §1
# [12] = biological target: GlcNAc(b1-2)[GlcNAc(b1-6)]Man(a1-6)[GlcNAc(b1-2)Man(a1-3)]Man(b1-4)GlcNAc(b1-4)[Fuc(a1-6)]GlcNAc
# Method in brief: as §1
# [13] = biological target: GlcNAc(b1-2)[GlcNAc(b1-6)]Man(a1-6)[GlcNAc(b1-4)][GlcNAc(b1-2)Man(a1-3)]Man(b1-4)GlcNAc(b1-4)GlcNAc
# Method in brief: as §1
# GlcNAc(b1-3)Fuc = biological target: GlcNAc(b1-3)Fuc
# Method in brief: as §1
# GlcNAc(b1-3)Gal = biological target: GlcNAc(b1-3)Gal
# Method in brief: as §1
# [14] = biological target: GlcNAc(b1-3)Gal(b1-3)GalNAc
# Method in brief: as §1
# GlcNAc(b1-3)Gal(b1-4)Glc = biological target: GlcNAc(b1-3)Gal(b1-4)Glc
# Method in brief: as §1
# [15] = biological target: GlcNAc(b1-3)Gal(b1-4)GlcNAc
# Method in brief: as §1
# [16] = biological target: GlcNAc(b1-3)Gal(b1-4)GlcNAc(b1-2)Man(a1-3)[GlcNAc(b1-3)Gal(b1-4)GlcNAc(b1-2)Man(a1-6)]Man(b1-4)GlcNAc(b1-4)GlcNAc
# Method in brief: as §1
# [17] = biological target: GlcNAc(b1-3)Gal(b1-4)GlcNAc(b1-2)Man(a1-3)[GlcNAc(b1-3)Gal(b1-4)GlcNAc(b1-2)Man(a1-6)]Man(b1-4)GlcNAc(b1-4)[Fuc(a1-6)]GlcNAc
# Method in brief: as §1
# [18] = biological target: GlcNAc(b1-3)Gal(b1-4)GlcNAc(b1-2)[GlcNAc(b1-3)Gal(b1-4)GlcNAc(b1-6)]Man(a1-6)[GlcNAc(b1-3)Gal(b1-4)GlcNAc(b1-2)Man(a1-3)]Man(b1-4)GlcNAc(b1-4)GlcNAc
# Method in brief: as §1
# [19] = biological target: GlcNAc(b1-3)Gal(b1-4)GlcNAc(b1-3)Gal(b1-4)GlcNAc
# Method in brief: as §1
# [20] = biological target: GlcNAc(b1-3)Gal(b1-4)GlcNAc(b1-3)Gal(b1-4)GlcNAc(b1-2)Man(a1-3)[GlcNAc(b1-3)Gal(b1-4)GlcNAc(b1-3)Gal(b1-4)GlcNAc(b1-2)Man(a1-6)]Man(b1-4)GlcNAc(b1-4)GlcNAc
# Method in brief: as §1
# [21] = biological target: GlcNAc(b1-3)Gal(b1-4)GlcNAc(b1-3)Gal(b1-4)GlcNAc(b1-2)Man(a1-3)[GlcNAc(b1-3)Gal(b1-4)GlcNAc(b1-3)Gal(b1-4)GlcNAc(b1-2)Man(a1-6)]Man(b1-4)GlcNAc(b1-4)[Fuc(a1-6)]GlcNAc
# Method in brief: as §1
# [22] = biological target: GlcNAc(b1-3)Gal(b1-4)GlcNAc(b1-3)Gal(b1-4)GlcNAc(b1-2)[GlcNAc(b1-3)Gal(b1-4)GlcNAc(b1-3)Gal(b1-4)GlcNAc(b1-6)]Man(a1-6)[GlcNAc(b1-3)Gal(b1-4)GlcNAc(b1-3)Gal(b1-4)GlcNAc(b1-2)Man(a1-3)]Man(b1-4)GlcNAc(b1-4)[Fuc(a1-6)]GlcNAc
# Method in brief: as §1
# [23] = biological target: GlcNAc(b1-3)Gal(b1-4)GlcNAc(b1-3)Gal(b1-4)GlcNAc(b1-3)Gal(b1-4)GlcNAc(b1-2)Man(a1-3)[GlcNAc(b1-3)Gal(b1-4)GlcNAc(b1-3)Gal(b1-4)GlcNAc(b1-3)Gal(b1-4)GlcNAc(b1-2)Man(a1-6)]Man(b1-4)GlcNAc(b1-4)GlcNAc
# Method in brief: as §1
# [24] = biological target: GlcNAc(b1-3)Gal(b1-4)GlcNAc(b1-3)Gal(b1-4)GlcNAc(b1-3)Gal(b1-4)GlcNAc(b1-2)Man(a1-3)[GlcNAc(b1-3)Gal(b1-4)GlcNAc(b1-3)Gal(b1-4)GlcNAc(b1-3)Gal(b1-4)GlcNAc(b1-2)Man(a1-6)]Man(b1-4)GlcNAc(b1-4)[Fuc(a1-6)]GlcNAc
# Method in brief: as §1
# [25] = biological target: GlcNAc(b1-3)Gal(b1-4)GlcNAc(b1-3)Gal(b1-4)GlcNAc(b1-3)Gal(b1-4)GlcNAc(b1-2)[GlcNAc(b1-3)Gal(b1-4)GlcNAc(b1-3)Gal(b1-4)GlcNAc(b1-3)Gal(b1-4)GlcNAc(b1-6)]Man(a1-6)[GlcNAc(b1-3)Gal(b1-4)GlcNAc(b1-3)Gal(b1-4)GlcNAc(b1-3)Gal(b1-4)GlcNAc(b1-2)Man(a1-3)]Man(b1-4)GlcNAc(b1-4)[Fuc(a1-6)]GlcNAc
# Method in brief: as §1
# [26] = biological target: GlcNAc(b1-3)Gal(b1-4)GlcNAc(b1-3)Gal(b1-4)GlcNAc(b1-3)Gal(b1-4)GlcNAc(b1-3)Gal(b1-4)GlcNAc(b1-2)Man(a1-3)[GlcNAc(b1-3)Gal(b1-4)GlcNAc(b1-3)Gal(b1-4)GlcNAc(b1-3)Gal(b1-4)GlcNAc(b1-3)Gal(b1-4)GlcNAc(b1-2)Man(a1-6)]Man(b1-4)GlcNAc(b1-4)GlcNAc
# Method in brief: as §1
# [27] = biological target: GlcNAc(b1-3)Gal(b1-4)GlcNAc(b1-3)Gal(b1-4)GlcNAc(b1-3)Gal(b1-4)GlcNAc(b1-3)Gal(b1-4)GlcNAc(b1-2)Man(a1-3)[GlcNAc(b1-3)Gal(b1-4)GlcNAc(b1-3)Gal(b1-4)GlcNAc(b1-3)Gal(b1-4)GlcNAc(b1-3)Gal(b1-4)GlcNAc(b1-2)Man(a1-6)]Man(b1-4)GlcNAc(b1-4)[Fuc(a1-6)]GlcNAc
# Method in brief: as §1
# [28] = biological target: GlcNAc(b1-3)Gal(b1-4)GlcNAc(b1-3)Gal(b1-4)GlcNAc(b1-3)Gal(b1-4)GlcNAc(b1-3)Gal(b1-4)GlcNAc(b1-2)[GlcNAc(b1-3)Gal(b1-4)GlcNAc(b1-3)Gal(b1-4)GlcNAc(b1-3)Gal(b1-4)GlcNAc(b1-3)Gal(b1-4)GlcNAc(b1-6)]Man(a1-6)[GlcNAc(b1-3)Gal(b1-4)GlcNAc(b1-3)Gal(b1-4)GlcNAc(b1-3)Gal(b1-4)GlcNAc(b1-3)Gal(b1-4)GlcNAc(b1-2)Man(a1-3)]Man(b1-4)GlcNAc(b1-4)[Fuc(a1-6)]GlcNAc
# Method in brief: as §1
# [29] = biological target: GlcNAc(b1-3)Gal(b1-4)GlcNAc(b1-3)Gal(b1-4)GlcNAc(b1-3)GalNAc
# Method in brief: as §1
# [30] = biological target: GlcNAc(b1-3)Gal(b1-4)GlcNAc(b1-3)GalNAc
# Method in brief: as §1
# [31] = biological target: GlcNAc(b1-3)Gal(b1-4)GlcNAc(b1-3)[GlcNAc(b1-3)Gal(b1-4)GlcNAc(b1-3)]GalNAc
# Method in brief: as §1
# [32] = biological target: GlcNAc(b1-3)Gal(b1-4)GlcNAc(b1-6)[Gal(b1-3)]GalNAc
# Method in brief: as §1
# [33] = biological target: GlcNAc(b1-3)Gal(b1-4)GlcNAc(b1-6)[GlcNAc(b1-3)Gal(b1-3)]GalNAc
# Method in brief: as §1
# [34] = biological target: GlcNAc(b1-3)Gal(b1-4)GlcNAc(b1-6)[GlcNAc(b1-3)]Gal(b1-4)GlcNAc
# Method in brief: as §1
# GlcNAc(b1-3)GalNAc = biological target: GlcNAc(b1-3)GalNAc
# Method in brief: as §1
# GlcNAc(b1-3)Man = biological target: GlcNAc(b1-3)Man
# Method in brief: as §1
# [35] = biological target: GlcNAc(b1-3)[GlcNAc(b1-4)][GlcNAc(b1-6)]GlcNAc
# Method in brief: as §1
# [36] = biological target: GlcNAc(b1-3)[GlcNAc(b1-6)]Gal(b1-4)GlcNAc
# Method in brief: as §1
# [37] = biological target: GlcNAc(b1-3)[GlcNAc(b1-6)]GalNAc
# Method in brief: as §1
# [38] = biological target: GlcNAc(b1-4)Gal(b1-4)GlcNAc
# Method in brief: as §1
# GlcNAc(b1-4)GlcNAc = biological target: GlcNAc(b1-4)GlcNAc
# Method in brief: as §1
# [39] = biological target: GlcNAc(b1-4)GlcNAc(b1-4)GlcNAc
# Method in brief: as §1
binder,measurement,setting,value
B1,glycan array binding signal (z-score),[1],-0.291
same,glycan array binding signal (z-score),[2],0.439
same,glycan array binding signal (z-score),[3],-0.182
same,glycan array binding signal (z-score),[4],-0.237
same,glycan array binding signal (z-score),[5],-0.121
same,glycan array binding signal (z-score),[6],0.231
same,glycan array binding signal (z-score),[7],0.159
same,glycan array binding signal (z-score),[8],0.926
same,glycan array binding signal (z-score),[9],-1.46
same,glycan array binding signal (z-score),[10],-0.206
same,glycan array binding signal (z-score),[11],-0.716
same,glycan array binding signal (z-score),[12],1.88
same,glycan array binding signal (z-score),[13],-1.33
same,glycan array binding signal (z-score),GlcNAc(b1-3)Fuc,0.282
same,glycan array binding signal (z-score),GlcNAc(b1-3)Gal,0.223
same,glycan array binding signal (z-score),[14],-0.313
same,glycan array binding signal (z-score),GlcNAc(b1-3)Gal(b1-4)Glc,-0.975
same,glycan array binding signal (z-score),[15],-0.269
same,glycan array binding signal (z-score),[16],-0.732
same,glycan array binding signal (z-score),[17],-0.413
same,glycan array binding signal (z-score),[18],-0.014
same,glycan array binding signal (z-score),[19],0.469
same,glycan array binding signal (z-score),[20],-0.844
same,glycan array binding signal (z-score),[21],0.656
same,glycan array binding signal (z-score),[22],-0.25
same,glycan array binding signal (z-score),[23],-0.043
same,glycan array binding signal (z-score),[24],-0.434
same,glycan array binding signal (z-score),[25],0.876
same,glycan array binding signal (z-score),[26],-1.22
same,glycan array binding signal (z-score),[27],0.242
same,glycan array binding signal (z-score),[28],-0.047
same,glycan array binding signal (z-score),[29],0.011
same,glycan array binding signal (z-score),[30],0.923
same,glycan array binding signal (z-score),[31],1.21
same,glycan array binding signal (z-score),[32],0.329
same,glycan array binding signal (z-score),[33],-0.516
same,glycan array binding signal (z-score),[34],1.31
same,glycan array binding signal (z-score),GlcNAc(b1-3)GalNAc,1.37
same,glycan array binding signal (z-score),GlcNAc(b1-3)Man,-0.667
same,glycan array binding signal (z-score),[35],0.381
same,glycan array binding signal (z-score),[36],-0.556
same,glycan array binding signal (z-score),[37],-0.056
same,glycan array binding signal (z-score),[38],-0.404
same,glycan array binding signal (z-score),GlcNAc(b1-4)GlcNAc,-0.722
same,glycan array binding signal (z-score),[39],0.252

# Two records picked at random from those above, as already listed:
binder,measurement,setting,value
B1,glycan array binding signal (z-score),[8],0.926
same,glycan array binding signal (z-score),[34],1.31
